Laboratory results as given in US20200397795A1, “PROPHYLACTIC TREATMENT OF VENOUS THROMBOEMBOLISM” (JANSSEN PHARMACEUTICALS, INC., priority 2019, published 2020).

Test system: symptomatic VTE and VTE-related death in high-risk, medically ill subjects
Assay: MARINER (Study 2): efficacy of rivaroxaban vs placebo for 45 days post-hospital discharge
Assay type: in vivo, human
Details: Up-to-Day 45; ITT
From the text: The primary objective of Study 2 (MARINER) was to assess the efficacy and safety of rivaroxaban, compared with placebo in the prevention of symptomatic venous thromboembolism (VTE; lower extremity deep vein thrombosis [DVT] and non-fatal pulmonary embolism [PE]) and VTE-related death (death due to PE or death in which PE could not be ruled out as the cause) post-hospital discharge in high-risk, medically ill subjects.
This was a multicenter, prospective, randomized, double-blind, placebo-controlled, event-driven study conducted in multiple geographic regions (North America, South America, Eastern Europe, Western Europe, and Other locations) that evaluated rivaroxaban, compared with placebo, in the prevention of symptomatic VTE events and VTE-related deaths for a period of 45 days post-hospital discharge in high-risk, medically ill subjects. The study consisted of a screening phase, a 45-day double-blind treatment phase, and a 30-day safety follow-up period (which was also the end of study [EOS]). The total duration for a subject who completed the study (including the safety follow-up period) after randomization was 75 (±5) days.
The index hospitalization was at least 3 and no more than 10 consecutive days in duration. […] Subjects received thromboprophylaxis during the index hospitalization with low molecular weight heparin (LMWH) or unfractionated heparin (UFH).
Randomization occurred on the same day or the day after the subject left the hospital, and occurred at the hospital, clinic, or other discharge destination. Eligible subjects were to be randomly assigned (1:1) by strata (by creatinine clearance [CrCl] level [≥30-<50 mL/min versus ≥50 mL/min] and by country) to receive either rivaroxaban or placebo. Subjects with a baseline CrCl of ≥50 mL/min were to receive rivaroxaban 10 mg once daily (QD) or placebo QD. […] The subject was assessed 30 days later for safety follow-up. […]
The primary and secondary efficacy outcomes were analyzed based on the time from randomization to the first occurrence in the ITT analysis set and Up-to-Day 45 analysis phase. […]

**Q.** What does the source list for `O=C(NC[C@H]1CN(c2ccc(N3CCOCC3=O)cc2)C(=O)O1)c1ccc(Cl)s1` [Rivaroxaban, 5-chloro-N-({(5S)-2-oxo-3-[4-(3-oxo-4-morpholinyl)phenyl]-1,3,oxazolidin-5-yl}methyl)-2-thiophenecarboxamide]?
**A.** Mean total duration of all re-hospitalization: 10.8 days; Re-hospitalized subjects with a total duration of 3 days in the hospital: 91.3%; Subjects with at least 1 re-hospitalization: 6.3%
